Earlier results in patent US20130236898A1, “Anaplasma FAMILY MEMBERS CAUSE A NUMBER OF BLOOD-BORNE DISEASES” (priority 2012, published 2013).
At least one structure is not confirmed: it was looked up by name or label, or the drawing left a doubt.

Experiments:
HGA agent = conditions: reported by Klein et al., Antimicrob. Agents and Chemother. 1997; cited from earlier work
[1] = system: intracellular organisms in the genus of Ehrlich/Anaplasma; conditions: cited from earlier work

Structure (SMILES)	activity against the HGA agent (HGA agent)	effectiveness against intracellular organisms of genus Ehrlich/Anaplasma [1]
CCC[C@@H]1C[C@@H](C(=O)N[C@@H]([C@H]2O[C@H](SC)[C@H](O)[C@@H](O)[C@H]2O)[C@H](C)Cl)N(C)C1 [clindamycin]	resistant	–
CN(C)[C@@H]1C(O)=C(C(N)=O)C(=O)[C@@]2(O)C(O)=C3C(=O)c4c(O)cccc4[C@@](C)(O)[C@H]3C[C@@H]12 [tetracycline]	–	less effective and bacteriostatic
